Experimental data taken from publication doi:10.1101/2024.09.27.615518.
Results are given in words; binding and its absence hold for the method and conditions named. Binding seen in cells or lysates may run through a third protein. Some binding calls cover weakened binding; strength is not graded here.

By UniProt entry, the sequences of proteins in these tests, tags left out.
UniProt P07910: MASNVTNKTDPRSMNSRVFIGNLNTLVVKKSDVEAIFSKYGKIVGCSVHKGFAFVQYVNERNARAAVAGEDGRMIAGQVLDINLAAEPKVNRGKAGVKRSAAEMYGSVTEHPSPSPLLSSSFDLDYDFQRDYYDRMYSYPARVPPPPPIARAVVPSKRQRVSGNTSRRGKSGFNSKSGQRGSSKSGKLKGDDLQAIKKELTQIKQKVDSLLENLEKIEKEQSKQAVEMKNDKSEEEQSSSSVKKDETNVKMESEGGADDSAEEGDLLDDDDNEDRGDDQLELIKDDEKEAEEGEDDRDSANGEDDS
UniProt Q12905: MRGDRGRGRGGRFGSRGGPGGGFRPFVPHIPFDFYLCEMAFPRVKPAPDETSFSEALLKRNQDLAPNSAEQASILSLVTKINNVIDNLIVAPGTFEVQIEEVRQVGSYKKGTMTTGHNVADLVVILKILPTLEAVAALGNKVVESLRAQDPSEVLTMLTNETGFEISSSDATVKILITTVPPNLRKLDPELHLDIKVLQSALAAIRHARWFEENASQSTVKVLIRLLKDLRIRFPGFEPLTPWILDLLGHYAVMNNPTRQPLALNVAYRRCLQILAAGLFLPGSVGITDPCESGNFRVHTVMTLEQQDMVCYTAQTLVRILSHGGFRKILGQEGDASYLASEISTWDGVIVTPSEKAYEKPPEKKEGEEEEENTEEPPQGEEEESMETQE

How the values were obtained:
[1] = target: T1, HNRNPM (human (endogenous in HEK293T)) (UniProt P52272); experiment: co-IP
T1 sequence: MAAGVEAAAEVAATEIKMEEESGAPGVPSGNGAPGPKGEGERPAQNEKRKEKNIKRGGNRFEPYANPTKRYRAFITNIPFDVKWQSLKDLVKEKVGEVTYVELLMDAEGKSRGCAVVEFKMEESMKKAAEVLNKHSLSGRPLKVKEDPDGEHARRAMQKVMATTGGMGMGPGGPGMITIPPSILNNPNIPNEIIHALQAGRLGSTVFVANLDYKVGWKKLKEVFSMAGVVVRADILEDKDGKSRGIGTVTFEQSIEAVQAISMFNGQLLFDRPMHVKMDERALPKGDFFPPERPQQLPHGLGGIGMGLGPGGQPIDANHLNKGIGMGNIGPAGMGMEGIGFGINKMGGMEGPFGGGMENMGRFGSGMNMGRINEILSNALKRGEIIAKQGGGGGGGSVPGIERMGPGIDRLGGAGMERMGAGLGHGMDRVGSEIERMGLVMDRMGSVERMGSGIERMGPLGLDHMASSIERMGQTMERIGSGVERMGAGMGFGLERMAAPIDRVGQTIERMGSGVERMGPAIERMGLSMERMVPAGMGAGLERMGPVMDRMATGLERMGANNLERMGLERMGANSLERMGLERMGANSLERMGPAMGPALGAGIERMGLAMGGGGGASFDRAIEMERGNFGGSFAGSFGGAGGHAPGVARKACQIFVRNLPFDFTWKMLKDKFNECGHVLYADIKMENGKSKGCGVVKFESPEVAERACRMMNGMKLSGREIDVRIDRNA

[2] = target: HNRNPC (human (endogenous in HEK293T, HepG2, A431)) (UniProt P07910); experiment: co-IP

Substance: ILF2 (from UniProt Q12905 1-390)
- binding [1]: binds
- binding [2]: binds
